No constants are given. Whether binding was seen depends on the method and setting. Binding seen in cells or lysates may run through a third protein. Some binding calls cover weakened binding; strength is not graded here.
Target: endogenous HIPK2 (human (endogenous in HEK 293)) (UniProt Q9H2X6)
Assay: co-IP; HEK 293 cells, transfected tagged and/or endogenous proteins; high-salt lysis buffer (50 mM Tris/HCl pH 7.5, 1% Nonidet P-40, 300 mM NaCl, 150 mM KCl, 5 mM EDTA) diluted with lysis buffer without NaCl and KCl; antibodies and protein A-Sepharose overnight at 4 °C; in some panels cells treated with MG132 (5 uM, 10 h), siHSP70, siPARP1 or doxorubicin (2 ug/ml)

The chains behind the UniProt entries cited, without tags or fusion partners.
UniProt Q9H2X6: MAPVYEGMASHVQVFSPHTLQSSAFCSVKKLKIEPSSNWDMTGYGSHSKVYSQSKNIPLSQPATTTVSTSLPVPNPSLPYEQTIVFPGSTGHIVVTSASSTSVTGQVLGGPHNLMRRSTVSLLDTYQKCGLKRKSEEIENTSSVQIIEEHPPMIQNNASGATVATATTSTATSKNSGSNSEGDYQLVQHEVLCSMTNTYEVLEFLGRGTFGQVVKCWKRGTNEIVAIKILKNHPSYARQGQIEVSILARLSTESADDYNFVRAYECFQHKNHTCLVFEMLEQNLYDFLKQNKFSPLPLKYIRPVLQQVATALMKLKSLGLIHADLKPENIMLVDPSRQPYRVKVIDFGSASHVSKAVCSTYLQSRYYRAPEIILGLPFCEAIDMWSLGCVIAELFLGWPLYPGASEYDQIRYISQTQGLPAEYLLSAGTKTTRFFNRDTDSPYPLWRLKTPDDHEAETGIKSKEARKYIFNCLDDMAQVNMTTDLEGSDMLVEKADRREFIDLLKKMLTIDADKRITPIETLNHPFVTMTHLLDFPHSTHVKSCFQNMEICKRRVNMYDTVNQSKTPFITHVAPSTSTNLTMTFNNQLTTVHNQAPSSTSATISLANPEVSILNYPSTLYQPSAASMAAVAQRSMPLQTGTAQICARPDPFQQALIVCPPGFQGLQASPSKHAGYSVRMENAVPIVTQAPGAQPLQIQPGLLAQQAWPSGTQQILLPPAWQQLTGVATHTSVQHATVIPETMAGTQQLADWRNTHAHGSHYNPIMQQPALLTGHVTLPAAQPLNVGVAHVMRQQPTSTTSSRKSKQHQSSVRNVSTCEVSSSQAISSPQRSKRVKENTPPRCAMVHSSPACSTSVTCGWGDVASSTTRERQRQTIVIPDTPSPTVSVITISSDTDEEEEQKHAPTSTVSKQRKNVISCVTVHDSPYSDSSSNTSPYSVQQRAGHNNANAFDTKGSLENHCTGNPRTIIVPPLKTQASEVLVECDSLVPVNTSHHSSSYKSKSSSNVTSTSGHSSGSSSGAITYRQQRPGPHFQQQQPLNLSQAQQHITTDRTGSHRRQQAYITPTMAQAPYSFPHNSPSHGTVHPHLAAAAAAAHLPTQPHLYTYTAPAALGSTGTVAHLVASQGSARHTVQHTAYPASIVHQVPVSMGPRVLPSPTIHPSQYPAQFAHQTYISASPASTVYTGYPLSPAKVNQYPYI
UniProt P09874: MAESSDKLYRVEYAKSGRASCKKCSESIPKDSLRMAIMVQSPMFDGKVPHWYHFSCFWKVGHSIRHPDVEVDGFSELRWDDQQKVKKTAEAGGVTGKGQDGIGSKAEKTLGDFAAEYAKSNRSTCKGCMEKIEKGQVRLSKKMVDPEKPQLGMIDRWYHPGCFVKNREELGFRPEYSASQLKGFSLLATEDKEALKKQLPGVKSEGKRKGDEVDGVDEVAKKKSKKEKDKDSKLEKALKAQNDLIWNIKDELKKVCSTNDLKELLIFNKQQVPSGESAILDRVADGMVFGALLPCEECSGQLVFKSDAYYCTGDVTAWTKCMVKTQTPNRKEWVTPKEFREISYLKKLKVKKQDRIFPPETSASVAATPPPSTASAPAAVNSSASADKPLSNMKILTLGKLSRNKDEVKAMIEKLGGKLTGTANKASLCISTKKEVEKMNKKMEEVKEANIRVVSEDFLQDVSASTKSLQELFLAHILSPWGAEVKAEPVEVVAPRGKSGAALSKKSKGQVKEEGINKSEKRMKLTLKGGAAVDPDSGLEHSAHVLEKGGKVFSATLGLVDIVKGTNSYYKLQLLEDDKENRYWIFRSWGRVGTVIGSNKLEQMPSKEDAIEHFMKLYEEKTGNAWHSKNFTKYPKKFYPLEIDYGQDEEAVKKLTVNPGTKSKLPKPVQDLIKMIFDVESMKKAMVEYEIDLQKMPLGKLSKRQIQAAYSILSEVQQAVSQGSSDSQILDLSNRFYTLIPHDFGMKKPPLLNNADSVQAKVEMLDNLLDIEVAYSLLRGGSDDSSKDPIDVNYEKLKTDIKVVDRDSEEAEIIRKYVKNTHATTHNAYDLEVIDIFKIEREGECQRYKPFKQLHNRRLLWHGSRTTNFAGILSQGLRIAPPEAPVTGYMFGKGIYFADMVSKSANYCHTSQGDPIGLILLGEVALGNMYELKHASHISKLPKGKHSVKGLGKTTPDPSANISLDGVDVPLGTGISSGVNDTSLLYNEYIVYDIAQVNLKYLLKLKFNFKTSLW

- binding: binds
Substance: endogenous PARP1 (poly(ADP-ribose) polymerase 1) (from UniProt P09874 1-1014) (enzyme)
